By UniProt entry, the sequences of proteins in these tests, tags left out. Where a name states a change or a piece, a line headed by the entry shows the natural chain unless it says otherwise.
UniProt O94782: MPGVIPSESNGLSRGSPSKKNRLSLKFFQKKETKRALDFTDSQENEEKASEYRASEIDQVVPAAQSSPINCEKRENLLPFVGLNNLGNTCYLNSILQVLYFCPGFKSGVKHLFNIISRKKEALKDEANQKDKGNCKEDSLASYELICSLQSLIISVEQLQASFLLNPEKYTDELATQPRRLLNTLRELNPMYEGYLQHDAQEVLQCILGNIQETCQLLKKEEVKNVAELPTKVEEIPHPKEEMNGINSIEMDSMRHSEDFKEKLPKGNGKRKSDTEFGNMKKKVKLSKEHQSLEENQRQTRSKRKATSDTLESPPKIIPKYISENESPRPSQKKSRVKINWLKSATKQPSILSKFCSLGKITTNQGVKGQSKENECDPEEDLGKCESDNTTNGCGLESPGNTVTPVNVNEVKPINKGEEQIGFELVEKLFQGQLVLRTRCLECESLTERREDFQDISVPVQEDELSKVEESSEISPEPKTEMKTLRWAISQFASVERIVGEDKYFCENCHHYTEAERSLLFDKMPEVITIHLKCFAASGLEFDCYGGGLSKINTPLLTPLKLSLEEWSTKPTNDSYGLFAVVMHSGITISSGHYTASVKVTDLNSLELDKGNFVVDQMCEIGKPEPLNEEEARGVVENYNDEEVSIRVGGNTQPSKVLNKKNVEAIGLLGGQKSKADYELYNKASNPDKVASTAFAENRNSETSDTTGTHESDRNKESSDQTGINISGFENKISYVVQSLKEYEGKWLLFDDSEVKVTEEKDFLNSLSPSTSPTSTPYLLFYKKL

Hit rate of the full screen: of about 390,000 compounds, about 910 (0.23%) were called active. The shares of active, inactive and inconclusive entries below differ from those in the screen. The call rests on the fitted dose curve; in most records, active means well fitted inhibition curve with a large enough effect; inconclusive means small, poorly fitted or top-dose-only effect; inactive means no such curve, though single readings can be large or run the other way. Where the call is inconclusive, the potency comes from a doubtful curve fit.
What follows are compounds tested against Ubiquitin carboxyl-terminal hydrolase 1 (Homo sapiens) (UniProt O94782) (assay: Inhibitors of USP1/UAF1: Primary Screen). Conditions: recombinant USP1/UAF1, Ub-Rhodamine cleavage fluorescence; series mostly up to 57.1 µM.
From the text: Deubiquitinating enzymes (DUBs) are a class of enzymes that can cleave isopeptide bond formed between the C-terminal carboxylate of ubiquitin and a lysine side-chain amino group on the target protein. Among them, ubiquitin specific proteases (USPs) constitute the largest DUB family. Human USPs are emerging as promising targets for pharmacological intervention because of their connection to a number of human diseases, including prostate, colon and breast cancer (1, 2), pediatric acute lymphoblastic leukemia (3), and familial cylindromatosis (4). The advantage of inhibiting USPs lies in the potential specificity of therapeutic intervention that can lead to better efficacy and reduce nonspecific side effects. […] This miniaturized assay has a fluorescent read-out and is used to screen the NIH Molecular Libraries Small Molecule Repository (MLSMR) in order to identify a small molecule that inhibits USP1. […]
3 microliters of reagents (buffer in columns 3 and 4 as negative control and 1nM USP1/UAF1 complex in columns 1, 2, and 5-48) are dispensed into Greiner black solid bottom 1536-well assay plates. […] The plates are immediately centrifuged at 1000 rpm for 15 seconds, and subsequently transferred to a ViewLux high-throughput CCD imager (PerkinElmer) wherein kinetic measurements of fluorescence are acquired using 480 nm excitation/540 nm emission filter set (6 reads every 60 seconds, see Table 1). […]
`CCCCNS(=O)(=O)CCNCc1ccccc1OC` was tested, and the Potency was inconclusive: 0.282 µM [inhibitor, full curve, poor fit].
Further: nearly all actives have a fitted effect of over 60% in size.
Potency means the concentration at half of the fitted maximal effect.
